This assay addresses TAP-tagged Sib3 (S. pombe) (UniProt Q9UUE3). Briefly: pull-down; whole cell extracts of S. pombe sib2Δ sib3Δ cells co-expressing Sib3-TAP with Sib2-GFP or GFP alone, grown with Dip (250 μM, 90 min); Sib3-TAP held on IgG-Sepharose 6 Fast-Flow beads; bound fraction immunoblotted with anti-mouse IgG, anti-GFP and anti-α-tubulin.

Chains of the proteins cited; added tags and fusions are not shown. Lines headed by an entry give the natural chain unless they say otherwise; changes in a name come on top.
UniProt Q9UUE3: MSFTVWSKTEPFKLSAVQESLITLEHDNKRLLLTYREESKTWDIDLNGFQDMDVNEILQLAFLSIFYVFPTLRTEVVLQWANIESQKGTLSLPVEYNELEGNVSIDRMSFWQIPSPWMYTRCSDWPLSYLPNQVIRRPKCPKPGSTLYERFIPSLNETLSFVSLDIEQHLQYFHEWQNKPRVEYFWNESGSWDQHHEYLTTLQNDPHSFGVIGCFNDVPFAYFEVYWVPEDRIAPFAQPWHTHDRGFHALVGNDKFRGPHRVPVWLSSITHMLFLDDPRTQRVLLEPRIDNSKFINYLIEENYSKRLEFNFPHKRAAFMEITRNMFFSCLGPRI

These are yes or no findings as the source states them, for the method shown. Binding seen in cells or lysates may run through a third protein. Binding can be weak; no strength is given. Sequences can lack the tags named with a protein.

B1: GFP-tagged Sib2 (enzyme, UniProt Q9P7T0 1-431)
chain: MTEPLDLAIIGFGPASLSFLIALHDHSEEPLKNKKIRVFEKLPTFSWHEGMLIPGSNMQISFVKDLATPRDPTSYFTFLNYLHSHGQERLSGFLNMSTLEPSRYEYHDYLCWAASHFSKFVEYNANINKLHYDAATDLYIVGHGDTQWQAKNIIITTGCQPYIPPLYKSVDSPLIVHSSKFMSDHSQKLLRNSKHGILVVGCGQSAAEIWKHCHYSLDPKTPLAMCFRNLAPVPSDSSPFVNSLYFDSHNSHWWYNLPTEARLKGLSVGRTTNYSVVKESLLEEMFKECYLQKLRYGQEFHQIMGDTDIQSIKNEGDHLVVQLTSQMDKSKKPETRKIDVLYVATGYDHESFDVLMSSLFPNSQGAQISEEYCVLNAPSKQGKVYVAGITSNQHGIGETLLSWAAIRAGGLAKELFGPSKPTARVPASYLN
Regarding B1, the binding result is “binds”.

For the origin of these results see paper PMC9344042.
